From the supplement of paper PMC12819154, “High-throughput peptide-centric local stability assay extends protein–ligand identification to membrane proteins, tissues and bacteria” (Nature Structural & Molecular Biology, 2025) come the findings set out here.

By UniProt entry, the sequences of proteins in these tests, tags left out. Where a name states a change or a piece, a line headed by the entry shows the natural chain unless it says otherwise.
UniProt Q924W7: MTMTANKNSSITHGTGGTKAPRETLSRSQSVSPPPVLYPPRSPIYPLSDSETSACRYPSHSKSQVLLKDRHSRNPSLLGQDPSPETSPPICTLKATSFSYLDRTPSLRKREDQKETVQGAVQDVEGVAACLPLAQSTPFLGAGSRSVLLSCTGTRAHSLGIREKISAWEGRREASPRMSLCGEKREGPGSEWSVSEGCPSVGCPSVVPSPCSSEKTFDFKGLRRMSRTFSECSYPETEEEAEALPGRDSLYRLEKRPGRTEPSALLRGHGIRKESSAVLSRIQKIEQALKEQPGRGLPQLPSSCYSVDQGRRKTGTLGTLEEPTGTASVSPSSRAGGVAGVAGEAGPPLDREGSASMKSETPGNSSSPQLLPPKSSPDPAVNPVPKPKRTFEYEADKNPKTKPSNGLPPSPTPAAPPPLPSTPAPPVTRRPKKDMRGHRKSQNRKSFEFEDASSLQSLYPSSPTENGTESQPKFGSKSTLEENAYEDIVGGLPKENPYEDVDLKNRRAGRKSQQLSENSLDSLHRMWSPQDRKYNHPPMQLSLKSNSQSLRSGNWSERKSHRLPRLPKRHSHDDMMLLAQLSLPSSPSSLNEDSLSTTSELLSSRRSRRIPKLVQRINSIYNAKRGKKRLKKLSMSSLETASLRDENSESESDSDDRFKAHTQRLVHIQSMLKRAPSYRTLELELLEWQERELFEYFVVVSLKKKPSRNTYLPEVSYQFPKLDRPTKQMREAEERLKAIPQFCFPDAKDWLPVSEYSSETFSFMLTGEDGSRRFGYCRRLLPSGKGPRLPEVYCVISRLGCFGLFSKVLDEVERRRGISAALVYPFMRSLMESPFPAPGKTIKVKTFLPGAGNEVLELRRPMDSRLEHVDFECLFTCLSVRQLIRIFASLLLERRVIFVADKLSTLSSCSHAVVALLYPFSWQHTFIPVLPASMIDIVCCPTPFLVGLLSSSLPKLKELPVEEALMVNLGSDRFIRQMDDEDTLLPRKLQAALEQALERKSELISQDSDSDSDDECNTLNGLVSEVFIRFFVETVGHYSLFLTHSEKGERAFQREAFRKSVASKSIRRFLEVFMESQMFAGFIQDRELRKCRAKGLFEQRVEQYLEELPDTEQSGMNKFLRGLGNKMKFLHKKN
UniProt Q99J47: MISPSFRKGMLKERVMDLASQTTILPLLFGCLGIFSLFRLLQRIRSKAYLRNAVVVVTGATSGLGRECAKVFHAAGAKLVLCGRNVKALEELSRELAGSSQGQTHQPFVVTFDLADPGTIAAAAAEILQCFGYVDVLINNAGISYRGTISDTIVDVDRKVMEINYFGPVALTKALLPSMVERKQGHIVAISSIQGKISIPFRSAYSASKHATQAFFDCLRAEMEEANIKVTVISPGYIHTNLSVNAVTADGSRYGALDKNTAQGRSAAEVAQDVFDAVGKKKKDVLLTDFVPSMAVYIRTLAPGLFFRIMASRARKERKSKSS
UniProt Q925B0: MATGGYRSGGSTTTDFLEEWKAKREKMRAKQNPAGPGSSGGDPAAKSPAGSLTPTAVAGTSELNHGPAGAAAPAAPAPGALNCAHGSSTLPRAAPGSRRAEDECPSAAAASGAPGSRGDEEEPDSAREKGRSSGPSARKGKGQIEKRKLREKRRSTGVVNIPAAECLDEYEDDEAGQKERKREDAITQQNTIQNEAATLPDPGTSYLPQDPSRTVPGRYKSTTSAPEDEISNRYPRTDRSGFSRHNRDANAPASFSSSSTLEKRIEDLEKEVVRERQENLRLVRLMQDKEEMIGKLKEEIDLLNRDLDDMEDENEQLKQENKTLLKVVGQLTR
UniProt Q923U0: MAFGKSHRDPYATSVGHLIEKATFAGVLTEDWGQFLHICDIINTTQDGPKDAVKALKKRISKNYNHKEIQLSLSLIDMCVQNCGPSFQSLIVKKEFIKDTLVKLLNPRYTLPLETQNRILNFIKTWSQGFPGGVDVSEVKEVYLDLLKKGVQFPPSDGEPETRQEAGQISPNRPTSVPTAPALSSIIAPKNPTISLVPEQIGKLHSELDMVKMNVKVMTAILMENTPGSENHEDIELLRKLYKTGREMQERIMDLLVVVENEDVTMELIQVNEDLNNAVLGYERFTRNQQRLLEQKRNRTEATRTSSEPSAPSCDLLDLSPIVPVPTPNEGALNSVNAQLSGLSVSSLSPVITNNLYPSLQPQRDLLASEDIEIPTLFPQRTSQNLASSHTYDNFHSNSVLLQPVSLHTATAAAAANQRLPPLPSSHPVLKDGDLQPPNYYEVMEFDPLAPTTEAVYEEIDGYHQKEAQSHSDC
UniProt Q920C1: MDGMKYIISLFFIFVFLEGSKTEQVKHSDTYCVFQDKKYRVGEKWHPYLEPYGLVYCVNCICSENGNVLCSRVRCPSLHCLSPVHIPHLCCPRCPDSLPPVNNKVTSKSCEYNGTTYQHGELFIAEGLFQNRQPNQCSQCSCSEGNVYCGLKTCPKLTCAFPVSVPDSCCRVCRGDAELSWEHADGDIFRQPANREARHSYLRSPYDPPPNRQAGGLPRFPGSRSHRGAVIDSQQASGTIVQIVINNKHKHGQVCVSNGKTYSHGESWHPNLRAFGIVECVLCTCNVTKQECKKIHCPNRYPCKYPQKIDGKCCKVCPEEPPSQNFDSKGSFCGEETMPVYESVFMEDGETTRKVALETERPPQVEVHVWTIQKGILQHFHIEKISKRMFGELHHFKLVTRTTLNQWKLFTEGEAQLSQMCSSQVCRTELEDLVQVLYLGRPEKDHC
UniProt Q924C6: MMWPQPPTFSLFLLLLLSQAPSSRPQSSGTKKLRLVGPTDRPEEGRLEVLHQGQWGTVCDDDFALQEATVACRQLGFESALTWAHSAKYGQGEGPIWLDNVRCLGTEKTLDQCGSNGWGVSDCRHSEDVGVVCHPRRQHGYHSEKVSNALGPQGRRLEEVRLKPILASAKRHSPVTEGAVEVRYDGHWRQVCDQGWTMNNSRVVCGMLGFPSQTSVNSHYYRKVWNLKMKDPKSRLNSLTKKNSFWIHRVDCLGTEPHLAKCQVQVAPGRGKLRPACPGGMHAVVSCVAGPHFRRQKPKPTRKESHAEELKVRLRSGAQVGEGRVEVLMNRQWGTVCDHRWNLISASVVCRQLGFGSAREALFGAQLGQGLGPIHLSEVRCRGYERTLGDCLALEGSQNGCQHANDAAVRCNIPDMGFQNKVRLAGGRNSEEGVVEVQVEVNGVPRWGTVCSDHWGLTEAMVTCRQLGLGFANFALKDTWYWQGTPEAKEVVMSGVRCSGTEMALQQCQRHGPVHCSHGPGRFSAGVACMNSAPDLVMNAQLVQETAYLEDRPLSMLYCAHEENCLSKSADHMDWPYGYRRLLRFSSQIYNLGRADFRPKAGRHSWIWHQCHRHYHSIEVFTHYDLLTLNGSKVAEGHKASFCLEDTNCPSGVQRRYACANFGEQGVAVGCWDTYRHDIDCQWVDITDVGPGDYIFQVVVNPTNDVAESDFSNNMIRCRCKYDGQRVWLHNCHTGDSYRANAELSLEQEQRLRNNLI
UniProt Q99JT1: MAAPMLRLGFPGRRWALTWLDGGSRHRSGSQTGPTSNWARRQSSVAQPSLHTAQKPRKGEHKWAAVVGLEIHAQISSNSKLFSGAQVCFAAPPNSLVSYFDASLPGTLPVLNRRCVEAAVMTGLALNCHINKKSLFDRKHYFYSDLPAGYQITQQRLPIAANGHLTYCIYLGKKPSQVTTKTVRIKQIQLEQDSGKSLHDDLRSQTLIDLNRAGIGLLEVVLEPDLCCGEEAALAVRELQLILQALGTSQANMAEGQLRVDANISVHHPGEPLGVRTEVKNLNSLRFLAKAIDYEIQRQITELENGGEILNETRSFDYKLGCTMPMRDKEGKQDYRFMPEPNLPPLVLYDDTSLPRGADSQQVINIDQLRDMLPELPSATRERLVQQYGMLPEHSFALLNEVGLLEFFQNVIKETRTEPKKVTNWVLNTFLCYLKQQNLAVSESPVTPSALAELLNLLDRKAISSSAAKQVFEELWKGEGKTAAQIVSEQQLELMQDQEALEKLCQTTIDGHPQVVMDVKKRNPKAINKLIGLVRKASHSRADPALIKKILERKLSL
UniProt Q920A7: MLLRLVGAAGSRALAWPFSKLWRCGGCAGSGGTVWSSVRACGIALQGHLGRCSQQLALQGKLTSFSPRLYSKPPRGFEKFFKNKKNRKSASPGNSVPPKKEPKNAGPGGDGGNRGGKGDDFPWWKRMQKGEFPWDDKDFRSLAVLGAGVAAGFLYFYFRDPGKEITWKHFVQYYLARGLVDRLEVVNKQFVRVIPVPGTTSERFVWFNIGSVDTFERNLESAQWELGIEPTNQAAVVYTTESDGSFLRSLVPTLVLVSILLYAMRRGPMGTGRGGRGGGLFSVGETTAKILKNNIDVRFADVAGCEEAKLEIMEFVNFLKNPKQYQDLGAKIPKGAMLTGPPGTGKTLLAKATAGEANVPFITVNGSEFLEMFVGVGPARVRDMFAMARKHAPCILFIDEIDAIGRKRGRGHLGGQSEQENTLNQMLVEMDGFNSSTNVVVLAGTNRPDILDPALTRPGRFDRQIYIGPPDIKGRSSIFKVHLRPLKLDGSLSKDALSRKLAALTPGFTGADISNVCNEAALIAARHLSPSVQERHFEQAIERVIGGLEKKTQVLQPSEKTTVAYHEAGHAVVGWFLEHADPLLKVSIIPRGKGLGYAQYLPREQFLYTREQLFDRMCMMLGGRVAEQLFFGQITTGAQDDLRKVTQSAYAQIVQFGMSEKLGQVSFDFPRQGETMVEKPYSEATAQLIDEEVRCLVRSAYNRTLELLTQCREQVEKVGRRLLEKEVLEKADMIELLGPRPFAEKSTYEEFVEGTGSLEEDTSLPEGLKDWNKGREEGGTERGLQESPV

The list shows a part of the results. Most values lie at the level of the controls, where differences are scatter.

Compound in the experiment: CN[C@@H]1C[C@H]2O[C@@](C)([C@@H]1OC)n1c3ccccc3c3c4c(c5c6ccccc6n2c5c31)C(=O)NC4 [staurosporine]
In words: log2 fold change of tryptic peptide abundance, ligand vs vehicle (limited proteolysis) (log2 ratio); higher = more trypsin-susceptible (destabilized). Particulars: ligand concentration: 20 uM; sample: mouse liver crude lysate; replicate design: treated separately.
Regarding “UniProt Q924W7 (peptide sequence: SSPDPAVNPVPKPK, peptide start residue: 375)”, the log2 fold change is -0.209. To “UniProt Q99J47 (peptide sequence: TLAPGLFFR, peptide start residue: 300)” belongs 0.688. The figure for “UniProt Q925B0 (peptide sequence: AKQNPAGPGSSGGDPAAK, peptide start residue: 29)” is -0.273; for “UniProt Q923U0 (peptide sequence: EVYLDLLKK, peptide start residue: 141)” it is -0.43; for “UniProt Q920C1 (peptide sequence: ISKRMFGELHHFK, peptide start residue: 385)” it is -0.115. Regarding “UniProt Q924C6 (peptide sequence: QLGFESALTWAHSAK, peptide start residue: 74)”, the log2 fold change came to 0.238. To “UniProt Q91ZX7 (peptide sequence: ILWIDAR, peptide start residue: 1449)” belongs 0.287; to “UniProt Q99JT1 (peptide sequence: ETRTEPKK, peptide start residue: 414)”, 0.252.

Take “UniProt Q920A7 (peptide sequence: LLEKEVLEK, peptide start residue: 722)”: the log2 fold change was 0.502.
